Results taken from the supplement of paper PMC3682954.
Counter-ions that a name gives are not always drawn. ± gives the standard deviation of the averaged measurements. The list shows a part of the results. Many values rest on one well or one pass, so single values are uncertain.

System: RAW 264.7
Assay: cell viability (MTT) relative to vehicle control; higher = more viable cells
Conditions: stimulus: HMGB1 5 ug/ml, 18 h
[1] = compound concentration: 1 ug/ml

Row | Compound | cell viability [1] | cell viability (compound concentration: 3 uM)
1 | COc1cc(OC)c(C(=O)/C=C/c2ccc(O)c(OC)c2)c(OC)c1 [4-Hydroxy-2',3,4',6'-tetramethoxychalcone] | 94.6% | 
2 | CCCCC/C=C\C/C=C\C/C=C\C/C=C\CCCC(=O)O [Arachidonic acid] | 123% | 
3 | O=c1c(-c2ccc(O[C@@H]3O[C@H](CO)[C@@H](O)[C@H](O)[C@H]3O)cc2)coc2cc(O)cc(O)c12 | 104% | 
4 | NC(CCC(=O)O)C(=O)O (stereo not drawn) [D(-)-Glutamic acid] | 106% | 
5 | NC(=O)c1cccc(N)c1 [3-aminobenzamide] |  | 102%
6 | COCCc1ccc(OCC(O)CNC(C)C)cc1 (racemic) [(±)-Metoprolol (+)-tartrate] |  | 117%
7 | C[S+]([O-])CCC(N)C(=O)O (racemic) [DL-Methionine sulfoxide] | 100% | 
8 | C=CCSCC1Nc2cc(Cl)c(S(N)(=O)=O)cc2S(=O)(=O)N1 (stereo not given) [Althiazide] |  | 128%
9 | C=CCSCC1Nc2cc(Cl)c(S(N)(=O)=O)cc2S(=O)(=O)N1 (stereo not given) |  | 106%
10 | O=C(O)c1[nH]c(=O)[nH]c(=O)c1[N+](=O)[O-] [5-Nitroorotic acid, potassium salt monohydrate] | 105% | 
11 | CNC(=N)NCCC[C@H](N)C(=O)O [NG-Monomethyl-L-arginine acetate] |  | 105%
12 | O=C(O)C1=CCCN(CCON=C(c2ccccc2)c2ccccc2)C1 [NO-711 hydrochloride] |  | 106%
13 | Clc1ccc(N2CCN(Cc3cc4ccccn4n3)CC2)cc1 |  | 112%
14 | CN(C)CC/C=C1/c2ccccc2COc2ccc(CC(=O)O)cc21 [Olopatadine] |  | 101%
15 | CN(C)CC/C=C1/c2ccccc2COc2ccc(CC(=O)O)cc21 [Olopatadine hydrochloride] |  | 101%
16 | CN(C)CC/C=C1/c2ccccc2COc2ccc(CC(=O)O)cc21 |  | 98.3%
17 | Nc1ncnc2n[nH]c(Nc3ccc(F)cc3)c12 |  | 110%
18 | c1ccc(CN(CC2=NCCN2)c2ccccc2)cc1 |  | 108%
19 | c1ccc(CN(CC2=NCCN2)c2ccccc2)cc1 [Antazoline hydrochloride] |  | 103%
20 | CC(=O)N(CC(O)CN(C(C)=O)c1c(I)c(C(=O)NCC(O)CO)c(I)c(C(=O)NCC(O)CO)c1I)c1c(I)c(C(=O)NCC(O)CO)c(I)c(C(=O)NCC(O)CO)c1I (stereo not given) [Iodixanol] |  | 85.1%

Row | Compound | cell viability [1] | cell viability (compound concentration: 3 uM)
21 | CC(C(=O)O)c1ccc(C(=O)c2ccccc2)s1 (stereo not given) [Tiaprofenic acid] |  | 95.1%
22 | C#CCN(C)CCCOc1ccc(Cl)cc1Cl [Clorgyline hydrochloride] |  | 104 ± 6.9%
23 | C#CCN(C)CCCOc1ccc(Cl)cc1Cl |  | 108%
24 | CC(C)(CO)Cc1cc(C(C)(C)C)c(O)c(C(C)(C)C)c1 |  | 119%
25 | O=C(O)CN(CCN(CC(=O)O)CC(=O)O)CCN(CC(=O)O)CC(=O)O [Diethylenetriaminepentaacetic acid] |  | 96%
26 | O=C(O)CN(CCN(CC(=O)O)CC(=O)O)CCN(CC(=O)O)CC(=O)O [Pentetic acid] |  | 123%
27 | O=C(O)CN(CCN(CC(=O)O)CC(=O)O)CCN(CC(=O)O)CC(=O)O |  | 112%
28 | CCCn1cnc2c1c(=O)n(CCCCC(C)=O)c(=O)n2C |  | 114%
29 | CCCn1cnc2c1c(=O)n(CCCCC(C)=O)c(=O)n2C [Propentofylline] |  | 102%
30 | CCCCCCCCCCCCCCSCC(=O)O [Tetradecylthioacetic acid] |  | 111%
31 | CC(=O)/C(C)=N/O [2,3-Butanedione monoxime] |  | 112%
32 | O=[N+]([O-])c1cc2nc(O)c(O)nc2cc1[N+](=O)[O-] |  | 111%
33 | CC(C)NCC(O)c1cc(O)cc(O)c1 (stereo not given) |  | 104%
34 | CC(C)NCC(O)c1cc(O)cc(O)c1 (stereo not given) [Metaproterenol hemisulfate] |  | 104%
35 | CC(C)NCC(O)c1cc(O)cc(O)c1 (stereo not given) [Metaproterenol sulfate, orciprenaline sulfate] |  | 87.1%
36 | Cc1cn(C2CC(O)C(COP(=O)(O)OP(=O)(O)OP(=O)(O)O)O2)c(=O)[nH]c1=O (stereo not given) [Thymidine 5'-triphosphate sodium salt] | 106% | 
37 | Cn1c(=O)c2c(ncn2CCO)n(C)c1=O [Etofylline] |  | 103%
38 | O=C(CCCN1CCC(O)(c2cccc(C(F)(F)F)c2)CC1)c1ccc(F)cc1 [Trifluperidol hydrochloride] |  | 108%
39 | O=C(CCCN1CCC(O)(c2cccc(C(F)(F)F)c2)CC1)c1ccc(F)cc1 [Trifluperidol] |  | 97.4%
40 | Nc1ccn([C@H]2C[C@H](O)[C@@H](COP(=O)(O)O)O2)c(=O)n1 [2'-Deoxycytidine 5'-monophosphate] | 96.1% | 

3 entries from above in another layout.
CC(C(=O)O)c1ccc(C(=O)c2ccccc2)s1 (stereo not given) [Tiaprofenic acid]
  cell viability (compound concentration: 3 uM): 95.1%
CCCCCCCCCCCCCCSCC(=O)O [Tetradecylthioacetic acid]
  cell viability (compound concentration: 3 uM): 111%
O=C(CCCN1CCC(O)(c2cccc(C(F)(F)F)c2)CC1)c1ccc(F)cc1 [Trifluperidol]
  cell viability (compound concentration: 3 uM): 97.4%
